Data taken from publication doi:10.1101/2022.03.11.483896.
These are yes or no findings as the source states them, for the method shown. In cells and extracts the contact can be indirect. These calls come from enrichment with a bait or labelling near it, and not all partners need be listed.

Amino acid sequences for entries named in this document (tags omitted). Residues count along the entry.
UniProt P04150: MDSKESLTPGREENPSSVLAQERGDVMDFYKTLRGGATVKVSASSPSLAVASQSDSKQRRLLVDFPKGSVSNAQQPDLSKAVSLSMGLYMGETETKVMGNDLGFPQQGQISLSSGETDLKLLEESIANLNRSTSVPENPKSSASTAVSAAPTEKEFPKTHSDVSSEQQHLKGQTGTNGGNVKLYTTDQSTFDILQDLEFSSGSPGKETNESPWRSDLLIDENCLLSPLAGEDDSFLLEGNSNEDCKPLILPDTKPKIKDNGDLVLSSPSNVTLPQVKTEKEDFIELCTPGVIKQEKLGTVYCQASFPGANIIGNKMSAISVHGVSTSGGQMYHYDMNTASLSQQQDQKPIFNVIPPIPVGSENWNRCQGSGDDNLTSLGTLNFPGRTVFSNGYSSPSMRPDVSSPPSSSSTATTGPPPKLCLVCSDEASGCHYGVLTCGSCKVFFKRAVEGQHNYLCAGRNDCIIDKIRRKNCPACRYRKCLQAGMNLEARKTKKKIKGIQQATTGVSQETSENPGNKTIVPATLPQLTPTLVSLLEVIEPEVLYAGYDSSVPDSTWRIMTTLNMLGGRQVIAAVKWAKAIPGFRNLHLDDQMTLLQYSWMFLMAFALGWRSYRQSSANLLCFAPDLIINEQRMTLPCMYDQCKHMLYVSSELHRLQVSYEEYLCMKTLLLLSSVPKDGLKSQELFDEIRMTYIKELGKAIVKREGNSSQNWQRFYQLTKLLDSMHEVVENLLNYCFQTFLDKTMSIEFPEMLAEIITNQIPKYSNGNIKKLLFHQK
UniProt P01009, residues 25-418: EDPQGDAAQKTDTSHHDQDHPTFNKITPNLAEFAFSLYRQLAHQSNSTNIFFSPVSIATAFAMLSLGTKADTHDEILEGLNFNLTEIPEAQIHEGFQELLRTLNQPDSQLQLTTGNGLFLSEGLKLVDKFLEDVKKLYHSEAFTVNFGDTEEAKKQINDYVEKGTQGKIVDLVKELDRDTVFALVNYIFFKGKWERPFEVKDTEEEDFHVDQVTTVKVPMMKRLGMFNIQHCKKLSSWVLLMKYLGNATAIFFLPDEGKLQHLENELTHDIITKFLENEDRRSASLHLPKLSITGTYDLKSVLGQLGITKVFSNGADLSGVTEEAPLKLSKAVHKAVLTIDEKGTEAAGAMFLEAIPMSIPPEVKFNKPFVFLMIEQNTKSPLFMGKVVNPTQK

Biological target: Glucocorticoid receptor (human (endogenous in THP-1)) (UniProt P04150)
Test: affinity purification with mass spectrometry

## Alpha-1-antitrypsin (from UniProt P01009 25-418)
  binding: binds
